Some of the results follow.
Compound: COc1ccc(Cn2ccc3cc(C)c(C(=O)NO)cc32)cc1
Experiment: dose-dependent thermal stabilisation call (2D-TPP, DLPTP, 10% FDR) (binary (1 = stabilised)); higher = stabilised by the compound
Conditions: system: HL-60 intact cells; concentration range 0.04-10 µM
Experimental: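 2D thermal proteome profiling in intact HL-60 cells treated with BRD-3811 (0, 0.04, 0.29, 2, 10 uM) for 90 min at 37 C, then heated 3 min at one of 12 temperatures (42-63.9 C). Soluble protein was quantified by TMT10 MS. The value is the DLPTP call of the paper: dose-dependent thermal stabilisation over all temperatures at 10% FDR (F-test of a dose-response against a flat model); one experiment, one call per tested protein.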

Chains of the proteins cited; added tags and fusions are not shown. Lines headed by an entry give the natural chain unless they say otherwise; changes in a name come on top.
UniProt Q86YT6, whole entry, looked up: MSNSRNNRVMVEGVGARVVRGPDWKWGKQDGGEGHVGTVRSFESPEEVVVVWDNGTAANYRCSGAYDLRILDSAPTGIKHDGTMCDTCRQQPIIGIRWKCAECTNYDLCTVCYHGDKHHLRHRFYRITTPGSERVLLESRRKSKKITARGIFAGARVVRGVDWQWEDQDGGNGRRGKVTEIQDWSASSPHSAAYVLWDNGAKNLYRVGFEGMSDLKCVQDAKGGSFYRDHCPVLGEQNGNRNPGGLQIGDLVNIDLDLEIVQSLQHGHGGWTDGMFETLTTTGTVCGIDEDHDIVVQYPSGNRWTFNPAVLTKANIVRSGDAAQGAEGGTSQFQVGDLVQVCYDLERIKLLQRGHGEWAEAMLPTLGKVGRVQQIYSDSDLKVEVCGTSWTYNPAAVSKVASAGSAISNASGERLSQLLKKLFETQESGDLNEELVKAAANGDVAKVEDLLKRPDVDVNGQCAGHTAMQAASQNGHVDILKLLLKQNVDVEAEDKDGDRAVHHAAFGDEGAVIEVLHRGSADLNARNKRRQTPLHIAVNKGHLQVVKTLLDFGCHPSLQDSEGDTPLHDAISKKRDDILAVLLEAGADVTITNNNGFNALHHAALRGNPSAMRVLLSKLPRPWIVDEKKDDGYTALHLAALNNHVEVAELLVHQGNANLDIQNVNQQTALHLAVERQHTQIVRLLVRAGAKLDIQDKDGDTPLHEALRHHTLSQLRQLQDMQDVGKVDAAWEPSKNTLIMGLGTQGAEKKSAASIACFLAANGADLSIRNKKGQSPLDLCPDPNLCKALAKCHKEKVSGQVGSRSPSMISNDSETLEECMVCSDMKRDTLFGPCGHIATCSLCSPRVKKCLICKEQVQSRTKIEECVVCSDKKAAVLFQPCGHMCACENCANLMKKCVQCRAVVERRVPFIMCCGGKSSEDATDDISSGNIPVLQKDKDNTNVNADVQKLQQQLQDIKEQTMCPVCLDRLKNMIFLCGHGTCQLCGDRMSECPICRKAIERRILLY
UniProt Q15648, whole entry: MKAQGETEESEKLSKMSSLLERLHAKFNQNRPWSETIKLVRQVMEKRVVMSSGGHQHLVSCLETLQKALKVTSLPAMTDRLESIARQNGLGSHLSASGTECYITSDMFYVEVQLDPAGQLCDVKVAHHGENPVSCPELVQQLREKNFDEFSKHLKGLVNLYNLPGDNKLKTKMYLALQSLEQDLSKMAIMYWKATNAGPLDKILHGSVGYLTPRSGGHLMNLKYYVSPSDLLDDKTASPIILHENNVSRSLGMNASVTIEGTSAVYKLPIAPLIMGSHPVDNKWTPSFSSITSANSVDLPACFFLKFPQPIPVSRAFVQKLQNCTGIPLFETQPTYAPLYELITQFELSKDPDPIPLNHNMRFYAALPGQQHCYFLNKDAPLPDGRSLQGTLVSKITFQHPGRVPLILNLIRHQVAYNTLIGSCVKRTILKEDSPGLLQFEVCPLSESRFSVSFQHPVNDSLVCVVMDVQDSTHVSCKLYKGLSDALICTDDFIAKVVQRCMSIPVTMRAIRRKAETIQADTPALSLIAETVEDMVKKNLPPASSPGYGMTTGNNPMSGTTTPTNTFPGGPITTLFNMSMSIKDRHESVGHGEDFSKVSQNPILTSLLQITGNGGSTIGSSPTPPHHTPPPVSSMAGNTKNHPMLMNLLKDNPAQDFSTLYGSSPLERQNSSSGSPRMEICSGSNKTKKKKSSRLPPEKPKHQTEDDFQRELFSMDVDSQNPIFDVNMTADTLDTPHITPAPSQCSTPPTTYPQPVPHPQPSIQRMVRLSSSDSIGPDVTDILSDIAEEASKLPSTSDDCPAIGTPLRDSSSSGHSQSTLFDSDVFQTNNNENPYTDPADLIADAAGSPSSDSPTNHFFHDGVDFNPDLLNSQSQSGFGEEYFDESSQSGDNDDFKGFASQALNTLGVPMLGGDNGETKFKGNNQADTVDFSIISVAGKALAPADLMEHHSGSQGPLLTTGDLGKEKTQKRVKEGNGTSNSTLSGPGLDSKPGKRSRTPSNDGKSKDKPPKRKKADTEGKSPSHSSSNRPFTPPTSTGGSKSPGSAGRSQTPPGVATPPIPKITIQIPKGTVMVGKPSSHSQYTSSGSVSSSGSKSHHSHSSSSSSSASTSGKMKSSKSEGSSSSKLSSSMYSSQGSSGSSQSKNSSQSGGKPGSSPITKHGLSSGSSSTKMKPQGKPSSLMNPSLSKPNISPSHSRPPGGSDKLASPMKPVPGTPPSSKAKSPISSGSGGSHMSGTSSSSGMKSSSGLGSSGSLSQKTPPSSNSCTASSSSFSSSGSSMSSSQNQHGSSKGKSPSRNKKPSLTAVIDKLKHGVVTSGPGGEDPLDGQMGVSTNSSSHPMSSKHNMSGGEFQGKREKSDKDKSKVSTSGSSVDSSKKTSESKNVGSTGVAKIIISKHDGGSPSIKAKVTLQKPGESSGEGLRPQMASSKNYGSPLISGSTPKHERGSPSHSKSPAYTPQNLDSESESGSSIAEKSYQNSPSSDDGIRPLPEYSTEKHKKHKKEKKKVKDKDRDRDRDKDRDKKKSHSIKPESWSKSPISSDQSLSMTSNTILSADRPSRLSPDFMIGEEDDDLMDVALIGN
UniProt P26038, whole entry: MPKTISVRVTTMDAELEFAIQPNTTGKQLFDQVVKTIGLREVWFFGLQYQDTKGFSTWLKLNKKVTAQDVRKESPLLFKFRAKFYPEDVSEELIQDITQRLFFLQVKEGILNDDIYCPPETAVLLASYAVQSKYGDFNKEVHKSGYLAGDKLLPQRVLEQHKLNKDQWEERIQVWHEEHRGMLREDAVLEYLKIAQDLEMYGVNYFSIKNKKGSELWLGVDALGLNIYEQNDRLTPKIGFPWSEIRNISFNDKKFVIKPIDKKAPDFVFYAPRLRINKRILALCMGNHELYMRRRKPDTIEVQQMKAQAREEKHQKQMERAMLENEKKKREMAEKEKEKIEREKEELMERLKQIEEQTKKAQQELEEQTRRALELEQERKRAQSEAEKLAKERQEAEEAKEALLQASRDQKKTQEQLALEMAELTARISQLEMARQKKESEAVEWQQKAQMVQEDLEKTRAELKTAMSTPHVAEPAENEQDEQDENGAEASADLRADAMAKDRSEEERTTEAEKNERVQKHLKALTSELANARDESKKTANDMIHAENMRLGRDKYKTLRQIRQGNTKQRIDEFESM
UniProt P56278: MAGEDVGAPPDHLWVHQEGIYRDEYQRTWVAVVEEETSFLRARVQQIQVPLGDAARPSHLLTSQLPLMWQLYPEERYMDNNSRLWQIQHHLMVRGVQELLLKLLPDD
UniProt P51608, whole entry: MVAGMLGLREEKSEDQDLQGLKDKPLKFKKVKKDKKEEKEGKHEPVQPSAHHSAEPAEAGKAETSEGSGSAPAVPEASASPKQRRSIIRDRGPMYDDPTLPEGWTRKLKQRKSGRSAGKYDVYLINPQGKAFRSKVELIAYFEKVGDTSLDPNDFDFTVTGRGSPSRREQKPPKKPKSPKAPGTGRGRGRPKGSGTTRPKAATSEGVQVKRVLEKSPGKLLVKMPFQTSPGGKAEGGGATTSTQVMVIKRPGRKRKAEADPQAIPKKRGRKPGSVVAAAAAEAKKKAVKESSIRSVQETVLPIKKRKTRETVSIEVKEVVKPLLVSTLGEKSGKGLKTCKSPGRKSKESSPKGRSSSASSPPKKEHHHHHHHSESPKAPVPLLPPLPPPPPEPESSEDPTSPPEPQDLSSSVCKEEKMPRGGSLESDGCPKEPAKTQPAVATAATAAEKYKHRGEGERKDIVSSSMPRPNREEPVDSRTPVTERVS
UniProt O94851, whole entry: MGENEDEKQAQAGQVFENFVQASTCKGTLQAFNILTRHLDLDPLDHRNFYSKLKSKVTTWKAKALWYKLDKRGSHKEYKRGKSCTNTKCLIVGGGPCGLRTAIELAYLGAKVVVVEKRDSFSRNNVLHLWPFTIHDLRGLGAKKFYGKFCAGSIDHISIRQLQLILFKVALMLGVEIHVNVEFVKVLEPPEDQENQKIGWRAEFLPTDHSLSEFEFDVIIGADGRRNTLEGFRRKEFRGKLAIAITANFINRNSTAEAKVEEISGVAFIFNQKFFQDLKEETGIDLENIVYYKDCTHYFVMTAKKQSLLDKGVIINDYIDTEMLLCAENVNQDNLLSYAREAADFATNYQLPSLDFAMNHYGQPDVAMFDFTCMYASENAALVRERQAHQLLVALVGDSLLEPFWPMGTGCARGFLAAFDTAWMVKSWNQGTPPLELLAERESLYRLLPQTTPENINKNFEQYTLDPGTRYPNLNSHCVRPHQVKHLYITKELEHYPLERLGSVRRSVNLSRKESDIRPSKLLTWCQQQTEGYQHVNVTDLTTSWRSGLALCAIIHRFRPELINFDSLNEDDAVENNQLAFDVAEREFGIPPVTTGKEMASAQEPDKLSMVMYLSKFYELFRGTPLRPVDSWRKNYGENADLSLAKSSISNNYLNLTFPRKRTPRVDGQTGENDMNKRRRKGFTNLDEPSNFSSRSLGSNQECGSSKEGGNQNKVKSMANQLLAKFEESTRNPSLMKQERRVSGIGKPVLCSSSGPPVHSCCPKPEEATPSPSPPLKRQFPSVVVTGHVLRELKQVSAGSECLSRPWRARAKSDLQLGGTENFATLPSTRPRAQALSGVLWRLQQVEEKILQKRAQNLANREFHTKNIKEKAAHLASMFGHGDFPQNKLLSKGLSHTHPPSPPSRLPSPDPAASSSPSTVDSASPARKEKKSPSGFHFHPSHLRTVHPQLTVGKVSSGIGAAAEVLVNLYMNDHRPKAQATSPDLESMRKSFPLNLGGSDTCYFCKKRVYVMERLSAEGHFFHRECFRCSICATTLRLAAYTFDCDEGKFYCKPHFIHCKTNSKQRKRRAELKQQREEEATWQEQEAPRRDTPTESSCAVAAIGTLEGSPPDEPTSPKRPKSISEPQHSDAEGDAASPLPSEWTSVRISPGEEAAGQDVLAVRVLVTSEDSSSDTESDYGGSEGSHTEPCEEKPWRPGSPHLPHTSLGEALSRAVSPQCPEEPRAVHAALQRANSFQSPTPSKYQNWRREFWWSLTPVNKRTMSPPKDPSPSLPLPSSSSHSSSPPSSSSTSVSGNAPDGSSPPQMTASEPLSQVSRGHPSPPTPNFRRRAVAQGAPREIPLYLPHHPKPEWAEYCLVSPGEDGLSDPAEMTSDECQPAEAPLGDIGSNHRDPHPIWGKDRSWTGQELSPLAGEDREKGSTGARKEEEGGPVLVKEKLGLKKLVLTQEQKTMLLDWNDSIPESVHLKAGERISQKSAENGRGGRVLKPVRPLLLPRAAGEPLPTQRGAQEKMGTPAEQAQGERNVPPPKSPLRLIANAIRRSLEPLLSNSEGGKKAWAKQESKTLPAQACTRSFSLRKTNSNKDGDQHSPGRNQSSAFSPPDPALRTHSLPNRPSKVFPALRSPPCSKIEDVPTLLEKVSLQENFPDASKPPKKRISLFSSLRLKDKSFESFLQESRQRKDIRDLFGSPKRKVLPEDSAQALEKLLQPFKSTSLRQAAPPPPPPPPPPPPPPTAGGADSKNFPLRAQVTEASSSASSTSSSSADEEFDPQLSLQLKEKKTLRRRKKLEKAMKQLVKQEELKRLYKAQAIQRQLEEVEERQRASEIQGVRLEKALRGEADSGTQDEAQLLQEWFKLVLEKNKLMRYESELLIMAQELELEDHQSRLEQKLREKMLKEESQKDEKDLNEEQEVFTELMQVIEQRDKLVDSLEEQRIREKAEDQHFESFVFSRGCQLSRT
UniProt Q9H944: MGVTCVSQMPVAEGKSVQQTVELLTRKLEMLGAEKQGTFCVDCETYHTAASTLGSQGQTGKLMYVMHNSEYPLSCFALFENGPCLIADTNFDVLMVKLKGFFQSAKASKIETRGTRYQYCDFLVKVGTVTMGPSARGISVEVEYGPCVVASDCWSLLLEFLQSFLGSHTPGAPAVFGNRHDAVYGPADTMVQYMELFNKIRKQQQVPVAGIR
UniProt P10242: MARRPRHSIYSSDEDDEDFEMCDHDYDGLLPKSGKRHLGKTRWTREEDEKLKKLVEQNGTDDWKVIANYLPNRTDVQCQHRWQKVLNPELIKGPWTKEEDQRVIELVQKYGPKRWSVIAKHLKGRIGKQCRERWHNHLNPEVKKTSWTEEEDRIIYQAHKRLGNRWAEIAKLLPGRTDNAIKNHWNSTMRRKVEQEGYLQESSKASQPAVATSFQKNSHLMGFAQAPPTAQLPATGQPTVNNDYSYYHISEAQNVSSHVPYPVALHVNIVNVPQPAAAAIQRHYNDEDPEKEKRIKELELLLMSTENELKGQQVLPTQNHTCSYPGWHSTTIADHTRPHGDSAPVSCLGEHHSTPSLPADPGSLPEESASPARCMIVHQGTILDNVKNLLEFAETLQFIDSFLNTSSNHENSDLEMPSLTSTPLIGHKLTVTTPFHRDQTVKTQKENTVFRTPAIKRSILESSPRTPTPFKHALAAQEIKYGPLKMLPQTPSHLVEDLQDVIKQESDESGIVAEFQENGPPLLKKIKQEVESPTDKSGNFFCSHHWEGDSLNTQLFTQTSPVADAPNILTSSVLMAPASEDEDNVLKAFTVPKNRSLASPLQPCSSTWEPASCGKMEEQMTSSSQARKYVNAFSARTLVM

Target	dose-dependent thermal stabilisation call
MED27 (UniProt Q6P2C8)	inactive: 0
MRPS23 (UniProt Q9Y3D9)	inactive: 0
MVK (UniProt Q03426)	inactive: 0
MRPS2 (UniProt Q9Y399)	inactive: 0
MMAA (UniProt Q8IVH4)	inactive: 0
MESDC2 (UniProt Q14696)	inactive: 0
MND1 (UniProt Q9BWT6)	inactive: 0
MPZL1 (UniProt O95297)	inactive: 0
MTF2 (UniProt Q9Y483)	inactive: 0
MYBBP1A (UniProt Q9BQG0)	inactive: 0
MIB1 (UniProt Q86YT6)	inactive: 0
MED1 (UniProt Q15648)	inactive: 0
MRPS5 (UniProt P82675)	inactive: 0
MRPL15 (UniProt Q9P015)	inactive: 0
MRPS24 (UniProt Q96EL2)	inactive: 0
METTL2B (UniProt Q6P1Q9)	inactive: 0
METTL7A (UniProt Q9H8H3)	inactive: 0
MXRA7 (UniProt P84157)	inactive: 0
NACC1 (UniProt Q96RE7)	inactive: 0
MED15 (UniProt Q96RN5)	inactive: 0
MSN (UniProt P26038)	inactive: 0
MTMR2 (UniProt Q13614)	inactive: 0
MGRN1 (UniProt O60291)	inactive: 0

Target	dose-dependent thermal stabilisation call
MTCP1 (UniProt P56278)	inactive: 0
MECP2 (UniProt P51608)	inactive: 0
MICAL2 (UniProt O94851)	inactive: 0
MPHOSPH8 (UniProt Q99549)	inactive: 0
MED20 (UniProt Q9H944)	inactive: 0
MYL6 (UniProt P60660)	inactive: 0
MRPL21 (UniProt Q7Z2W9)	inactive: 0
MED13 (UniProt Q9UHV7)	inactive: 0
MMAB (UniProt Q96EY8)	inactive: 0
MPI (UniProt P34949)	inactive: 0
MOBKL2A (UniProt Q96BX8)	inactive: 0
MIG12 (UniProt Q9NPA3)	inactive: 0
MRRF (UniProt Q96E11)	inactive: 0
MRPL22 (UniProt Q9NWU5)	inactive: 0
MYB (UniProt P10242)	inactive: 0
MYH9 (UniProt P35579)	inactive: 0
MTCH1 (UniProt Q9NZJ7)	inactive: 0
MORC2 (UniProt Q9Y6X9)	inactive: 0
MLF1IP (UniProt Q71F23)	inactive: 0
MSRA (UniProt Q9UJ68)	inactive: 0
MRPL19 (UniProt P49406)	inactive: 0
MMGT1 (UniProt Q8N4V1)	inactive: 0

Reformatted as a markdown table: part of the list above.

| Target | dose-dependent thermal stabilisation call |
| --- | --- |
| MED13 (UniProt Q9UHV7) | inactive: 0 |
| MIG12 (UniProt Q9NPA3) | inactive: 0 |
| MMGT1 (UniProt Q8N4V1) | inactive: 0 |
